In patent US20240368668A1, “SUBSTRATES AND BIOMARKERS OF ADAMTS7” (The Broad Institute, Inc., priority 2021, published 2024):

Assays:
mouse ADAMTS7 [1] = assay: TMT10 TAILS N-terminomics, HUVEC experiment (process replicates, trypsin/AspN digest); assay type: cell-based, human; details: for ATS7_HUVEC_TAILS_frxns_mATS7inDB_AspGluN.total Intensity: HUVEC TAILS experiment, total MS intensity of the N-terminal (neo-N-terminal) peptide identified by TAILS_id; for HUVEC TAILS.total Intensity: HUVEC experiment, total intensity of the N-terminal (TAILS) peptide
Description: ADAMTS7 Expression, Cell Culture and Preparation of the Secreted Proteins—Full-length mouse Adamts7 1-1857 (Uniprot Q68SA9, WT or E373Q catalytic mutant) with a carboxyl terminal 3xFLAG tag was used to generate custom adenoviruses as previously described. Adeno-CMV-Luciferase (Ad-Luc) from Vector Biolabs was used as a negative control. Human Coronary Artery Smooth Muscle Cells (HCA-SMC) were obtained from Lonza and expanded in Lonza SmGM-2 media in 15 cm tissue culture plates. Twenty-four hours before media collection, near confluent plates were transduced with 50 MOI adenovirus and switched to Lonza Basal SM media with volumes of 20 ml per 15 cm plate. Expression of the Flag tagged ADAMTS7 was confirmed from the media using western blot and detected using the anti-Flag M2-HRP antibody (Sigma, A8592). Collected media was processed by adding protease inhibitors (1 mM EDTA and 1 mM PMSF) and clarified by 500 g×5 min spin at 4 C to pellet cell debris. Cell media supernatants were then passed through a 0.22 um filter and kept chilled. Processed media was then concentrated 50-100× using 3 kDa Centricon Plus-70 filter unit, spun at 3,500 g×60 min at 4 C. Approximately 10% of the processed, concentrated media was set aside for total secretome proteolytic analysis. The remaining 90% of the processed, concentrated media was buffer exchanged into 50 mM HEPES pH 8.0, 150 mM NaCl (2×50 ml) using the 3 kDa Centricon Plus-70 filter unit and concentrated to >2 mg/ml to serve as input for the TAILS experiment. Secretome and TAILS input samples were stored at −80° C.
For the first experiment, referred to as SMC1, 120 ml of media from 6×15 cm dishes was pooled from each condition (Luc, WT, EQ) and processed to produce three separate inputs for the TAILS experiment. Luc, WT and EQ inputs from the SMC1 experiment were each divided into triplicate 400 ug samples to generate technical replicate TAILS data. For the second experiment, referred to as SMC2, media was processed separately in triplicate for each condition (Luc1, Luc2, Luc3, WT1, WT2, WT3, EQ1, EQ2, EQ3) using 60 ml of media from 3×15 cm dishes for each process replicate. Inputs from the SMC2 experiment used process replicates of 300 ug each to generate TAILS data. The third experiment used input from cultured Human umbilical vein endothelial cells (HUVEC) from Lifeline Cell Technology grown in VascuLife Media and transduced in Lifeline Basal EC (+bFGF2 10 ng/ml). The HUVEC experiment used the same strategy as the SMC2 experiment, with 40 ml of media from 2×15 cm dishes for each process replicate and used 200 ug each to generate TAILS data. Inputs for process replicate experiments were restricted to the lowest concentration from the 9 parallel samples for SMC2 or HUVEC.
TMT10 isotopic labeling and negative selection of non-labeled peptides-Sample preparation was performed based on the TAILS protocol from the Overall lab with some modifications. From a single experiment, nine parallel protein samples in 50 mM HEPES pH 8.0, 150 mM NaCl were separately denatured with guanidinium chloride (Sigma, G4505) to reach a final concentration of 2.5M guanidinium chloride and 250 mM HEPES and incubated at 65° C. for 15 min. Reduction was achieved through addition of tris(2-carboxylethyl) phosphine (TCEP) at a final concentration of […] and incubated at 65° C. for 45 min. Alkylation reaction was performed with addition of iodoacetamide (IAA, Sigma, A3221) to a final concentration of 10 mM IAA for 15 min at room temperature in the dark. Following denaturation, reduction and alkylation steps, ten percent of each of the nine parallel protein samples was removed and combined to serve as a pooled reference. Isobaric tags were added to free amine groups using the TMT10plex Isobaric Mass Tagging Kit (ThermoFisher, 90113) with TMT channels randomly assigned to the nine samples and TMT 131 assigned to the pooled reference. […]

mouse ADAMTS7 [2] = assay: TMT10 TAILS N-terminomics, SMC2 experiment (process replicates, trypsin/AspN digest); assay type: cell-based; details: for SMC2 TAILS.total Intensity: SMC2 experiment, total intensity of the N-terminal (TAILS) peptide
In short: (§1)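 Full-length mouse ADAMTS7 (WT or E373Q mutant, C-terminal 3xFLAG) or luciferase was transduced via adenovirus, 50 MOI, into HCA-SMC (SMC1, SMC2) or HUVEC. SMC1: pooled media, technical triplicates 400 ug; SMC2: process triplicates 300 ug; HUVEC: process triplicates 200 ug, bFGF2 10 ng/ml.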

mouse ADAMTS7 [3] = assay: TMT10 TAILS N-terminomics, SMC1 experiment (Ad-mADAMTS7 WT vs EQ vs Luc, technical replicates, trypsin digest); assay type: cell-based; details: for SMC1 TAILS.total Intensity: TAILS HC Overlap, total intensity of the peptide
In short: as §1

[4] = total intensity of the N-terminal peptide spectra, SMC rd2 TAILS fractions, AspN/GluC search
[5] = TAILS N-terminal peptide signal, SMC scale-up fractions, mouse ADAMTS7, label = TAILS_id (gene symbol_StartAA)
[6] = SMC rd2 TAILS, AspGluN search, total spectral intensity of the N-terminal peptide (TAILS_id = gene_StartAA cleavage site)
[7] = TAILS N-terminal peptide identified in SMC conditioned media (scale-up, fractions), mouse ADAMTS7, value listed per TAILS_id (protein_StartAA)

Substance	ATS7_HUVEC_TAILS_frxns_mATS7inDB_AspGluN.total Intensity (mouse ADAMTS7 [1])	HUVEC TAILS.total Intensity (mouse ADAMTS7 [1])	SMC2 TAILS.total Intensity (mouse ADAMTS7 [2])	ATS7_SMC_rd2_TAILS_frxns_matS7inDB_AspGluN_retry.totalIntensity (mouse ADAMTS7 [2]; [4])	SMC1 TAILS.total Intensity (mouse ADAMTS7 [3])	TAILS_SMC_Scaleup_fxns_mATS7i (mouse ADAMTS7 [3]; [5])	TAILS_SMC_Scaleup_fxns_mATS7i (mouse ADAMTS7 [3]; intensity of the N-terminal (TAILS) peptide in SMC scale-up TAILS experiment, fractions, peptide identified by TAILS_id (gene symbol_StartAA))	ATS7_SMC_rd2_TAILS_frxns_matS7inDB_AspGluN_retry.totalIntensity (mouse ADAMTS7 [2]; [6])	TAILS_SMC_Scaleup_fxns_mATS7i (mouse ADAMTS7 [3]; [7])
FN1_40 (QSPVAVSQSKPGCYDNGKHYQINQQWER; listed as Homo sapiens)	1.37E+10	1.37E+10	3.29E+09	3.29E+09	3.67E+09	3.67E+09	–	–	–
FN1_886 (NQESTPVVIQQETTGTPR; listed as Homo sapiens)	8.05E+09	4.67E+09	9.55E+08	–	1.42E+09	1.42E+09	–	–	–
SRGN_59 (LLPGESNKIPR; listed as Homo sapiens)	2.32E+08	2.32E+08	2.86E+09	–	2.70E+09	–	2.70E+09	–	–
MAP4_815 (AVASTGPSSR; listed as Homo sapiens)	6.08E+08	6.08E+08	5.60E+08	–	5.58E+08	–	–	5.60E+08	5.58E+08
FBN1_29 (LEAGNVKETR; listed as Homo sapiens)	1.85E+09	1.85E+09	2.40E+10	2.40E+10	1.26E+10	1.26E+10	–	–	–
FN1_1143 (LTPGVEYVYTIQVLR; listed as Homo sapiens)	4.67E+09	–	–	9.55E+08	1.36E+08	1.36E+08	–	–	–
IGFBP7_101 (AAGGPGVSGVCVCKSR; listed as Homo sapiens)	1.12E+08	1.12E+08	4.97E+08	–	5.68E+07	–	–	4.97E+08	5.68E+07
LTBP1_393 (LTATNFR; listed as Homo sapiens)	9.19E+08	9.19E+08	6.93E+09	–	9.30E+08	–	–	6.93E+09	9.30E+08
EFEMP1_124 (AVAGPEMQTGR; listed as Homo sapiens)	2.92E+11	2.92E+11	2.58E+10	2.58E+10	3.19E+09	3.19E+09	–	–	–
FLNA_1285 (LTQTGGPHVKAR; listed as Homo sapiens)	2.92E+09	2.92E+09	1.38E+09	1.38E+09	5.65E+08	5.65E+08	–	–	–
LOXL2_37 (FQQPAPEYHQPQAPANVAKIQLR; listed as Homo sapiens)	1.61E+09	1.61E+09	9.09E+09	–	5.20E+09	–	–	9.09E+09	5.20E+09
LOX_124 (WFQAGYSTSR; listed as Homo sapiens)	8.74E+07	8.74E+07	1.64E+09	–	1.65E+08	–	–	1.64E+09	1.65E+08
HSPG2_275 (LLPGSVR; listed as Homo sapiens)	–	2.67E+07	1.16E+08	–	2.35E+07	2.35E+07	–	1.16E+08	–
MAP4_816 (VASTGPSSR; listed as Homo sapiens)	2.73E+08	2.73E+08	8.83E+08	–	1.57E+08	–	–	8.83E+08	1.57E+08
COL18A1_1505 (LQPPVVQLHDSNPYPR; listed as Homo sapiens)	1.34E+11	1.34E+11	1.11E+10	1.11E+10	1.68E+09	1.68E+09	–	–	–
FN1_1656 (SSSPVTGYR; listed as Homo sapiens)	2.23E+10	2.23E+10	2.00E+10	2.00E+10	4.82E+09	4.82E+09	–	–	–
AEBP1_37 (FLEGFLSELEPEPR; listed as Homo sapiens)	5.26E+06	5.26E+06	8.64E+07	8.64E+07	4.54E+07	4.54E+07	–	–	–
HSPG2_2331 (ANLAYPAGSTQPIR; listed as Homo sapiens)	2.45E+09	2.45E+09	2.66E+08	–	7.64E+07	7.64E+07	–	2.66E+08	–
FN1_36 (MVQPQSPVAVSQSKPGCYDNGKHYQINQQWER; listed as Homo sapiens)	1.76E+11	1.76E+11	1.54E+11	1.54E+11	4.40E+10	4.40E+10	–	–	–
